Source: the supplement of paper PMC11546906
Where a name gives a salt, the structure may show the parent alone. This is one part of the list. Repeats in this data set agree poorly, so a single value says little.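 Screen of FDA-approved drugs, each combined with colistin at one-eighth of its MIC, against a multidrug-resistant mcr-1-positive clinical E. coli isolate; growth read as OD600 after 24 h. Bacteria without drug were the growth control and plain broth the blank. A combination counted as active when OD600 fell below 0.2.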

Test system: Escherichia coli 42 (mcr-1-positive clinical isolate)
Experiment: OD600 after 24 h growth with compound plus colistin (absorbance units (OD600)); higher = more bacterial growth (less inhibition)
Settings: first compound 25 µM; colistin concentration 0.5 ug/mL; incubation time 24 h; 37 °C

SMILES	OD600
N[C@@H](C(=O)N[C@@H]1C(=O)N2C(C(=O)O)=C(Cl)CS[C@H]12)c1ccccc1 [Cefaclor monohydrate] + CCC(C)CCCC(=O)N[C@@H](CCN)C(=O)N[C@H](C(=O)N[C@@H](CCN)C(=O)N[C@H]1CCNC(=O)[C@H]([C@@H](C)O)NC(=O)[C@H](CCN)NC(=O)[C@H](CCN)NC(=O)[C@H](CC(C)C)NC(=O)[C@@H](CC(C)C)NC(=O)[C@H](CCN)NC1=O)[C@@H](C)O [colistin]	inactive: 0.876
CCOC(=O)c1ncn2c1CN(C)C(=O)c1cc(F)ccc1-2 [Flumazenil] + CCC(C)CCCC(=O)N[C@@H](CCN)C(=O)N[C@H](C(=O)N[C@@H](CCN)C(=O)N[C@H]1CCNC(=O)[C@H]([C@@H](C)O)NC(=O)[C@H](CCN)NC(=O)[C@H](CCN)NC(=O)[C@H](CC(C)C)NC(=O)[C@@H](CC(C)C)NC(=O)[C@H](CCN)NC1=O)[C@@H](C)O [colistin]	inactive: 1.09
COC(c1ccccc1)(c1ccccc1)[C@H](Oc1nc(C)cc(C)n1)C(=O)O [Ambrisentan] + CCC(C)CCCC(=O)N[C@@H](CCN)C(=O)N[C@H](C(=O)N[C@@H](CCN)C(=O)N[C@H]1CCNC(=O)[C@H]([C@@H](C)O)NC(=O)[C@H](CCN)NC(=O)[C@H](CCN)NC(=O)[C@H](CC(C)C)NC(=O)[C@@H](CC(C)C)NC(=O)[C@H](CCN)NC1=O)[C@@H](C)O [colistin]	inactive: 0.88
O=NN(CCCl)C(=O)NCCCl [Carmustine] + CCC(C)CCCC(=O)N[C@@H](CCN)C(=O)N[C@H](C(=O)N[C@@H](CCN)C(=O)N[C@H]1CCNC(=O)[C@H]([C@@H](C)O)NC(=O)[C@H](CCN)NC(=O)[C@H](CCN)NC(=O)[C@H](CC(C)C)NC(=O)[C@@H](CC(C)C)NC(=O)[C@H](CCN)NC1=O)[C@@H](C)O [colistin]	inactive: 0.93
Cc1cn[nH]c1 [Fomepizole] + CCC(C)CCCC(=O)N[C@@H](CCN)C(=O)N[C@H](C(=O)N[C@@H](CCN)C(=O)N[C@H]1CCNC(=O)[C@H]([C@@H](C)O)NC(=O)[C@H](CCN)NC(=O)[C@H](CCN)NC(=O)[C@H](CC(C)C)NC(=O)[C@@H](CC(C)C)NC(=O)[C@H](CCN)NC1=O)[C@@H](C)O [colistin]	inactive: 1.09
CS(=O)(=O)CCNCc1ccc(-c2ccc3ncnc(Nc4ccc(OCc5cccc(F)c5)c(Cl)c4)c3c2)o1 [Lapatinib] + CCC(C)CCCC(=O)N[C@@H](CCN)C(=O)N[C@H](C(=O)N[C@@H](CCN)C(=O)N[C@H]1CCNC(=O)[C@H]([C@@H](C)O)NC(=O)[C@H](CCN)NC(=O)[C@H](CCN)NC(=O)[C@H](CC(C)C)NC(=O)[C@@H](CC(C)C)NC(=O)[C@H](CCN)NC1=O)[C@@H](C)O [colistin]	inactive: 0.911
COc1cc(CNC(=O)CCCC/C=C/C(C)C)ccc1O [Capsaicin] + CCC(C)CCCC(=O)N[C@@H](CCN)C(=O)N[C@H](C(=O)N[C@@H](CCN)C(=O)N[C@H]1CCNC(=O)[C@H]([C@@H](C)O)NC(=O)[C@H](CCN)NC(=O)[C@H](CCN)NC(=O)[C@H](CC(C)C)NC(=O)[C@@H](CC(C)C)NC(=O)[C@H](CCN)NC1=O)[C@@H](C)O [colistin]	inactive: 1.15
Cc1cnc(C(=O)NCCc2ccc(S(=O)(=O)NC(=O)NC3CCCCC3)cc2)cn1 [Glipizide] + CCC(C)CCCC(=O)N[C@@H](CCN)C(=O)N[C@H](C(=O)N[C@@H](CCN)C(=O)N[C@H]1CCNC(=O)[C@H]([C@@H](C)O)NC(=O)[C@H](CCN)NC(=O)[C@H](CCN)NC(=O)[C@H](CC(C)C)NC(=O)[C@@H](CC(C)C)NC(=O)[C@H](CCN)NC1=O)[C@@H](C)O [colistin]	inactive: 0.977
O=C(O)c1cccnc1 [Niacin] + CCC(C)CCCC(=O)N[C@@H](CCN)C(=O)N[C@H](C(=O)N[C@@H](CCN)C(=O)N[C@H]1CCNC(=O)[C@H]([C@@H](C)O)NC(=O)[C@H](CCN)NC(=O)[C@H](CCN)NC(=O)[C@H](CC(C)C)NC(=O)[C@@H](CC(C)C)NC(=O)[C@H](CCN)NC1=O)[C@@H](C)O [colistin]	inactive: 1.12
CN1CCC[C@@H]1CCO[C@](C)(c1ccccc1)c1ccc(Cl)cc1 [Clemastine fumarate] + CCC(C)CCCC(=O)N[C@@H](CCN)C(=O)N[C@H](C(=O)N[C@@H](CCN)C(=O)N[C@H]1CCNC(=O)[C@H]([C@@H](C)O)NC(=O)[C@H](CCN)NC(=O)[C@H](CCN)NC(=O)[C@H](CC(C)C)NC(=O)[C@@H](CC(C)C)NC(=O)[C@H](CCN)NC1=O)[C@@H](C)O [colistin]	inactive: 0.947
CCOC(=O)O[C@]1(C(=O)OCCl)CC[C@H]2[C@@H]3CCC4=CC(=O)C=C[C@]4(C)[C@H]3[C@@H](O)C[C@@]21C [Loteprednol etabonate] + CCC(C)CCCC(=O)N[C@@H](CCN)C(=O)N[C@H](C(=O)N[C@@H](CCN)C(=O)N[C@H]1CCNC(=O)[C@H]([C@@H](C)O)NC(=O)[C@H](CCN)NC(=O)[C@H](CCN)NC(=O)[C@H](CC(C)C)NC(=O)[C@@H](CC(C)C)NC(=O)[C@H](CCN)NC1=O)[C@@H](C)O [colistin]	inactive: 1.01
CCC(=O)NCC[C@@H]1CCc2ccc3c(c21)CCO3 [Ramelteon] + CCC(C)CCCC(=O)N[C@@H](CCN)C(=O)N[C@H](C(=O)N[C@@H](CCN)C(=O)N[C@H]1CCNC(=O)[C@H]([C@@H](C)O)NC(=O)[C@H](CCN)NC(=O)[C@H](CCN)NC(=O)[C@H](CC(C)C)NC(=O)[C@@H](CC(C)C)NC(=O)[C@H](CCN)NC1=O)[C@@H](C)O [colistin]	inactive: 1.05
NC(=O)N1c2ccccc2CC(=O)c2ccccc21 [Oxcarbazepine] + CCC(C)CCCC(=O)N[C@@H](CCN)C(=O)N[C@H](C(=O)N[C@@H](CCN)C(=O)N[C@H]1CCNC(=O)[C@H]([C@@H](C)O)NC(=O)[C@H](CCN)NC(=O)[C@H](CCN)NC(=O)[C@H](CC(C)C)NC(=O)[C@@H](CC(C)C)NC(=O)[C@H](CCN)NC1=O)[C@@H](C)O [colistin]	inactive: 1.05
CCOC(=O)N1CCC(=C2c3ccc(Cl)cc3CCc3cccnc32)CC1 [Loratadine] + CCC(C)CCCC(=O)N[C@@H](CCN)C(=O)N[C@H](C(=O)N[C@@H](CCN)C(=O)N[C@H]1CCNC(=O)[C@H]([C@@H](C)O)NC(=O)[C@H](CCN)NC(=O)[C@H](CCN)NC(=O)[C@H](CC(C)C)NC(=O)[C@@H](CC(C)C)NC(=O)[C@H](CCN)NC1=O)[C@@H](C)O [colistin]	inactive: 0.906
CC(c1cc2ccccc2s1)N(O)C(N)=O (stereo not given) [Zileuton] + CCC(C)CCCC(=O)N[C@@H](CCN)C(=O)N[C@H](C(=O)N[C@@H](CCN)C(=O)N[C@H]1CCNC(=O)[C@H]([C@@H](C)O)NC(=O)[C@H](CCN)NC(=O)[C@H](CCN)NC(=O)[C@H](CC(C)C)NC(=O)[C@@H](CC(C)C)NC(=O)[C@H](CCN)NC1=O)[C@@H](C)O [colistin]	inactive: 0.875
CCC(=O)OCC(=O)[C@@]1(OC(=O)CC)[C@@H](C)C[C@H]2[C@@H]3CCC4=CC(=O)C=C[C@]4(C)[C@@]3(F)[C@@H](O)C[C@@]21C [Betamethasone dipropionate] + CCC(C)CCCC(=O)N[C@@H](CCN)C(=O)N[C@H](C(=O)N[C@@H](CCN)C(=O)N[C@H]1CCNC(=O)[C@H]([C@@H](C)O)NC(=O)[C@H](CCN)NC(=O)[C@H](CCN)NC(=O)[C@H](CC(C)C)NC(=O)[C@@H](CC(C)C)NC(=O)[C@H](CCN)NC1=O)[C@@H](C)O [colistin]	inactive: 0.781
N#CC[C@H](C1CCCC1)n1cc(-c2ncnc3[nH]ccc23)cn1 [Ruxolitinib phosphate] + CCC(C)CCCC(=O)N[C@@H](CCN)C(=O)N[C@H](C(=O)N[C@@H](CCN)C(=O)N[C@H]1CCNC(=O)[C@H]([C@@H](C)O)NC(=O)[C@H](CCN)NC(=O)[C@H](CCN)NC(=O)[C@H](CC(C)C)NC(=O)[C@@H](CC(C)C)NC(=O)[C@H](CCN)NC1=O)[C@@H](C)O [colistin]	inactive: 1.07
Cc1nc2n(c(=O)c1CCN1CCC(c3noc4cc(F)ccc34)CC1)CCCC2O (stereo not given) [Paliperidone] + CCC(C)CCCC(=O)N[C@@H](CCN)C(=O)N[C@H](C(=O)N[C@@H](CCN)C(=O)N[C@H]1CCNC(=O)[C@H]([C@@H](C)O)NC(=O)[C@H](CCN)NC(=O)[C@H](CCN)NC(=O)[C@H](CC(C)C)NC(=O)[C@@H](CC(C)C)NC(=O)[C@H](CCN)NC1=O)[C@@H](C)O [colistin]	inactive: 1.13
NC(CO)(CO)CO [Trometamol] + CCC(C)CCCC(=O)N[C@@H](CCN)C(=O)N[C@H](C(=O)N[C@@H](CCN)C(=O)N[C@H]1CCNC(=O)[C@H]([C@@H](C)O)NC(=O)[C@H](CCN)NC(=O)[C@H](CCN)NC(=O)[C@H](CC(C)C)NC(=O)[C@@H](CC(C)C)NC(=O)[C@H](CCN)NC1=O)[C@@H](C)O [colistin]	inactive: 0.766
Cc1nnc(C(=O)NC(C)(C)c2nc(C(=O)NCc3ccc(F)cc3)c(O)c(=O)n2C)o1 [Raltegravir potassium] + CCC(C)CCCC(=O)N[C@@H](CCN)C(=O)N[C@H](C(=O)N[C@@H](CCN)C(=O)N[C@H]1CCNC(=O)[C@H]([C@@H](C)O)NC(=O)[C@H](CCN)NC(=O)[C@H](CCN)NC(=O)[C@H](CC(C)C)NC(=O)[C@@H](CC(C)C)NC(=O)[C@H](CCN)NC1=O)[C@@H](C)O [colistin]	inactive: 0.993

2 records picked at random from the list so far:
SMILES	OD600
Cc1nc2n(c(=O)c1CCN1CCC(c3noc4cc(F)ccc34)CC1)CCCC2O (stereo not given) [Paliperidone] + CCC(C)CCCC(=O)N[C@@H](CCN)C(=O)N[C@H](C(=O)N[C@@H](CCN)C(=O)N[C@H]1CCNC(=O)[C@H]([C@@H](C)O)NC(=O)[C@H](CCN)NC(=O)[C@H](CCN)NC(=O)[C@H](CC(C)C)NC(=O)[C@@H](CC(C)C)NC(=O)[C@H](CCN)NC1=O)[C@@H](C)O [colistin]	inactive: 1.13
O=NN(CCCl)C(=O)NCCCl [Carmustine] + CCC(C)CCCC(=O)N[C@@H](CCN)C(=O)N[C@H](C(=O)N[C@@H](CCN)C(=O)N[C@H]1CCNC(=O)[C@H]([C@@H](C)O)NC(=O)[C@H](CCN)NC(=O)[C@H](CCN)NC(=O)[C@H](CC(C)C)NC(=O)[C@@H](CC(C)C)NC(=O)[C@H](CCN)NC1=O)[C@@H](C)O [colistin]	inactive: 0.93
